Results published in patent US10004786B2 (Zealand Pharma A/S, priority 2009, dated 2018).

Experiment: general procedure: Fmoc solid-phase peptide synthesis; TentaGel S Ram resin (1 g; 0.25 mmol/g)
Conditions: whole synthesis, analytical HPLC

Substance: H-H-Aib-QGTFTSDYSKYLDS-K(Hexadecanoyl-γ-Glu)-AARDFVAWLLRA-NH2
- final HPLC purity: 97%
